Some entries share one result that the patent states for a list of compounds.
Tested on: terminal deoxynucleotidyl transferase (TdT)
Assay: Tailing of primers with dATP
Type: biochemical
Conditions: 4 pmol primer, 25 U TdT, 16 μM dATP, 90 min, 37° C.
Procedure: The ability of terminal deoxynucleotidyl transferase (TdT) to tail LNA modified oligonucleotides depends on the design of the oligomer. The following 15mer primers and a mixture of 8 to 32 base oligonucleotide markers were 5′ end labelled with [γ^33P] ATP and T4 polynucleotide kinase (where LNA monomers are in bold):
Reactions were boiled for 5 min after labelling to remove any PNK activity. Four picomoles of each labelled primer, 25 U terminal deoxynucleotidyl transferase and 16 μM dATP were incubated in 25 μl 100 mM cacodylate buffer pH 7.2, 2 mM CoCl2 and 0.2 mM 2-mercapto-ethanol for 90 min at 37° C. The reactions were stopped by the addition of formamide stop solution and the reaction products run on a 19% polyacrylamide 7 M urea gel with the labelled markers. Autoradiography using Biomax film was carried out on the dry gel. […] Primer PZ2 (lane 5) was not extended under these reaction conditions. We conclude that the TdT enzyme will tolerate LNA monomers within the oligonucleotide, but not at the extreme 3′ end.

Substance | tail length
P1: 5′-TGC ATG TGC TGG AGA-3′ (SEQ ID NO: 10), DNA primer (DNA TGCATGTGCTGGAGA; DNA, backbone not given here) [reference compound] | greater than 70 bases
P2: 5′-GC ATG TGC TGG AGA T-3′ (SEQ ID NO: 11), DNA primer (DNA GCATGTGCTGGAGAT; DNA, backbone and methylation of C not given here) [reference compound] | greater than 70 bases
PZ1: 5′-TGC ATG TGC TGG AGA-3′ (SEQ ID NO: 12), LNA monomer within the oligonucleotide (DNA TGCATGTGCTGGAGA; DNA at ACG, LNA at T, backbone not given here) | greater than 70 bases

— patent US8080644B2, “Oligonucleotide analogues” (Exiqon A/S, priority 1997, dated 2011)
